This test deals with FLAG-β-catenin (UniProt P35222). Kind of test: affinity purification with mass spectrometry; FLAG-β-catenin immunoprecipitated from 293T cell lysates following EGF treatment; Coomassie blue staining and MS peptide sequencing.

Protein sequences, listed by entry. Tags and fused reporters are not part of them.
UniProt P35222: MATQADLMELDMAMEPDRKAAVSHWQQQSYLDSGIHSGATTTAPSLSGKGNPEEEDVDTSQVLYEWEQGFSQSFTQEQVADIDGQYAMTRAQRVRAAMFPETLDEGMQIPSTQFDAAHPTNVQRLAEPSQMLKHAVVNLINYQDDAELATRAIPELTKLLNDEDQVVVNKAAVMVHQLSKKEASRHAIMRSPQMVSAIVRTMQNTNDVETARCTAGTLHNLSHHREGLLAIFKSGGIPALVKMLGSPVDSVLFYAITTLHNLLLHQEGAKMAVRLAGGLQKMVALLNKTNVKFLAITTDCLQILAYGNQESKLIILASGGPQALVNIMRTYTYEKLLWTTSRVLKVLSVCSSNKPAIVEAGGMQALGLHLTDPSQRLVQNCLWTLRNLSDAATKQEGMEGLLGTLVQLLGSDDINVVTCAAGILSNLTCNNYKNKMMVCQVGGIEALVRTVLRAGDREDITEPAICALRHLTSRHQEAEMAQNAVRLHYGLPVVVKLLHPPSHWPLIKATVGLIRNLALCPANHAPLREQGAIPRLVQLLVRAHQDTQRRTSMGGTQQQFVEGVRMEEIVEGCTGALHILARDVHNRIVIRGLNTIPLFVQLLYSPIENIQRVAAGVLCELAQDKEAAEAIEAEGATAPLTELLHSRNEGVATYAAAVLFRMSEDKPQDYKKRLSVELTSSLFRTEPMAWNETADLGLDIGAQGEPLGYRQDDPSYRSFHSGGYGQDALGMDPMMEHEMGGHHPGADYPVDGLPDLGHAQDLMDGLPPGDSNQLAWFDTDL

These are yes or no findings as the source states them, for the method shown. Binding seen in cells or lysates may run through a third protein. A yes stands for co-enrichment or nearness to the bait. Other partners may have been found.

B1: NONO (protein, UniProt Q15233 1-471)
chain: MQSNKTFNLEKQNHTPRKHHQHHHQQQHHQQQQQQPPPPPIPANGQQASSQNEGLTIDLKNFRKPGEKTFTQRSRLFVGNLPPDITEEEMRKLFEKYGKAGEVFIHKDKGFGFIRLETRTLAEIAKVELDNMPLRGKQLRVRFACHSASLTVRNLPQYVSNELLEEAFSVFGQVERAVVIVDDRGRPSGKGIVEFSGKPAARKALDRCSEGSFLLTTFPRPVTVEPMDQLDDEEGLPEKLVIKNQQFHKEREQPPRFAQPGSFEYEYAMRWKALIEMEKQQQDQVDRNIKEAREKLEMEMEAARHEHQVMLMRQDLMRRQEELRRMEELHNQEVQKRKQLELRQEEERRRREEEMRRQQEEMMRRQQEGFKGTFPDAREQEIRMGQMAMGGAMGINNRGAMPPAPVPAGTPAPPGPATMMPDGTLGLTPPTTERFGQAATMEGIGAIGGTPPAFNRAAPGAEFAPNKRRRY
As to B1, the binding result was “binds”.

B2: SHC-binging protein 1 (SHCBP1) (protein, UniProt Q8NEM2 1-672)
chain: MADGSLTGGGLEAAAMAPERMGWAVEQELASLEKGLFQDEDSCSDCSYRDKPGSSLQSFMPEGKTFFPEIFQTNQLLFYERFRAYQDYILADCKASEVQEFTAEFLEKVLEPSGWRAVWHTNVFKVLVEITDVDFAALKAVVRLAEPYLCDSQVSTFTMECMKELLDLKEHRLPLQELWVVFDDSGVFDQTALAIEHVRFFYQNIWRSWDEEEEDEYDYFVRCVEPRLRLHYDILEDRVPSGLIVDYHNLLSQCEESYRKFLNLRSSLSNCNSDSEQENISMVEGLKLYSEMEQLKQKLKLIENPLLRYVFGYQKNSNIQAKGVRSSGQKITHVVSSTMMAGLLRSLLTDRLCQEPGEEEREIQFHSDPLSAINACFEGDTVIVCPGHYVVHGTFSIADSIELEGYGLPDDIVIEKRGKGDTFVDCTGADIKISGIKFVQHDAVEGILIVHRGKTTLENCVLQCETTGVTVRTSAEFLMKNSDLYGAKGAGIEIYPGSQCTLSDNGIHHCKEGILIKDFLDEHYDIPKISMVNNIIHNNEGYGVVLVKPTIFSDLQENAEDGTEENKALKIQTSGEPDVAERVDLEELIECATGKMELCARTDPSEQVEGNCEIVNELIAASTQKGQIKKKRLSELGITQADDNLMSQEMFVGIVGNQFKWNGKGSFGTFLF
Regarding B2, the binding entry is “binds”.
